# Results from PubChem BioAssay AID504834 (National Center for Advancing Translational Sciences (NCATS), 2011).
# “And” between values parts separate entries of the source, which are not always exact repeats. Equal values may be shown once. In all, about 320,000 compounds went through this assay and about 22,000 (6.9%) were called active. The inconclusive results got no clear call from the source; some entries with a clear call stand among them for comparison. Calls follow the shape of the dose curve; as a rule, active = well fitted inhibition curve with a large enough effect; inconclusive = small, poorly fitted or top-dose-only effect, or another doubt; inactive = no such curve, though single readings can be large or run the other way. A potency beside an inconclusive call is a rough fit, not a confirmed value. More than one record can exist for a structure, and the calls need not agree.
# Assay: Primary qHTS for delayed death inhibitors of the malarial parasite plastid, 96 hour incubation
# Conditions: P. falciparum luciferase reporter growth; series mostly up to 28.7 µM; activity change, negative = inhibition: at the top concentration
# In short: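 Two parasite generations (96 h, 37 C, 5% CO2) of compound exposure in infected erythrocytes (0.05% parasitemia, 2% hematocrit). Luciferase-reporter P. falciparum; decreased luminescence indicates inhibited growth, aimed at apicoplast-acting delayed death.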
# % is scaled to controls: 0 for no effect and ±100 for the full control effect; potency is read from the fitted curve at half-maximal effect.
SMILES,Potency,"activity change, negative = inhibition"
c1ccc2sc(SN3CCOCC3)nc2c1,inactive,
CC1=Nc2cc(C(=O)O)ccc2Sc2ccc(C)cc21,"inconclusive: 1.65 µM [inhibitor, partial curve, poor fit]",
COCCn1c(C(=O)N2CCCC2)cc2c1C[C@H]1CN(C(=O)c3ccccc3)[C@@](Cc3ccc(F)cc3)(C(=O)OC)[C@@H]21,active: 4.65 µM,
COc1ccc(-c2ccc([C@H]3[C@H]4C=CC[C@@H](C)[C@@H]4C(=O)N3Cc3ccccc3)c(F)c2)cc1C,"inconclusive: 0.0828 µM [inhibitor, full curve, poor fit]",
N#Cc1ccccc1NC(=O)c1ccc2c(c1)OCO2,,inactive: 26.6%
Cc1ccc(N2C(=O)[C@@H]3C(C(=O)C(c4ccccc4)c4ccccc4)=NN[C@@H]3C2=O)cc1,"inconclusive: 18.5 µM [inhibitor, single point]",
NC(=O)C1(N2CCCCC2)CCN(C(=S)Nc2cccc(Cl)c2)CC1,,inactive: 27.8%
Cc1sc2nc(CSc3ccccc3)nc(NCCN(C)C)c2c1C,active: 5.86 µM,
COCCn1c(C)cc(C(=O)CSc2nc3ccccc3o2)c1C,,inactive: 147%
CCn1c2ccccc2c2cc(NC(=O)C(C)C)ccc21,"inconclusive: 10.4 µM [inhibitor, partial curve, poor fit]",
CC(NC(=O)c1cccc(S(=O)(=O)N2CCc3ccccc32)c1)c1ccco1 (stereo not drawn),"inconclusive: 18.5 µM [inhibitor, single point]",
O=Cc1ccc2ccc3cccnc3c2n1,"inconclusive: 10.4 µM [inhibitor, single point]",
O=C(CSc1nncn1-c1ccccn1)Nc1cccc(Cl)c1,,inactive: -28.1%
CCn1c(-c2ccccc2)csc1=Nc1ccc(O)cc1,"inconclusive: 10.4 µM [inhibitor, single point]",
COc1ccc(C2/C=C\CN(C(=O)C3CC3)[C@H](Cc3ccccc3)C(=O)N2Cc2ccc(F)cc2)cc1 (stereo partly drawn),"inconclusive: 14.7 µM [inhibitor, single point]",
CC(C)(C)n1nnnc1C(c1cccs1)N1CCN(Cc2ccc3c(c2)OCO3)CC1 (stereo not drawn),,inactive: 9.94%
Cn1nc2c(c1C(=O)O)CCCC2,,inactive: 27.6%
O=C(NCCCN1CCCC(O)C1)c1cc(COc2ccc(F)cc2F)on1 (stereo not drawn),,inactive: -26.2%
Brc1ccc2c(c1)CN1CCCC1=N2,"inconclusive: 10.4 µM [inhibitor, partial curve, poor fit]",
COc1ccc(C(CNC(=O)COc2ccccc2)N2CCOCC2)cc1 (stereo not drawn),"inconclusive: 6.57 µM [inhibitor, partial curve, poor fit]",
Cc1ccc(NC(=O)C(=O)c2cn(CC(=O)N3CCCCC3)c3ccccc23)cc1,"inconclusive: 11.7 µM [inhibitor, single point]",
O=C(c1ccccc1)N1N=C(c2cccs2)CC1c1ccccc1O (stereo not drawn),"inconclusive: 11.7 µM [inhibitor, partial curve, poor fit]",
Cc1cc(C)c2nc(N(CCCN(C)C)C(=O)c3ccc4c(c3)CCCC4)sc2c1,"inconclusive: 2.33 µM [inhibitor, full curve]",

# Whole records from above.
# Cn1nc2c(c1C(=O)O)CCCC2 is entered as activity change, negative = inhibition: inactive: 27.6%
# Brc1ccc2c(c1)CN1CCCC1=N2 is entered as Potency: inconclusive: 10.4 µM [inhibitor, partial curve, poor fit]
# COCCn1c(C)cc(C(=O)CSc2nc3ccccc3o2)c1C is entered as activity change, negative = inhibition: inactive: 147%

# (cont.)

SMILES,Potency,"activity change, negative = inhibition"
COc1ccc(NS(=O)(=O)c2cccc(C(=O)NC3CCN(Cc4ccccc4)CC3)c2)cc1,"inconclusive: 11.7 µM [inhibitor, single point]",
O=C(CC1SC(N2CCCC2)=NC1=O)Nc1ccc(C(=O)N2CCCC(C(F)(F)F)C2)cc1 (stereo not drawn),"inconclusive: 8.28 µM [inhibitor, single point]",
Cc1cc(C#Cc2c(-c3ccccc3)n(C)c3ccccc23)ccc1F,active: 5.86 µM,
CCn1c(SCC(=O)Nc2nc(C)c(C)s2)nnc1-c1cccnc1,"inconclusive: 11.7 µM [inhibitor, single point]",
CCOC(=O)N1CCC(NC(=O)CN(c2ccc(C(C)C)cc2)S(=O)(=O)c2c(C)nn(C)c2C)CC1,"inconclusive: 13.1 µM [inhibitor, partial curve]",
O=S(=O)(CCc1nc2ccccc2o1)c1ccc(Cl)c(Cl)c1,,inactive: 30.9%
O=C(CN1CCNC(=O)C1)NCCc1ccc(Cl)cc1Cl,"inconclusive: 4.15 µM [inhibitor, full curve, poor fit]",
CCCCc1ccc(NC(=S)N2CCN(c3ccccn3)CC2)cc1,,inactive: 17.6%
CC(c1ccccc1C(O)(c1ccccc1)c1ccccc1)N(C)C (stereo not drawn),"inconclusive: 18.5 µM [inhibitor, single point]",
CC(C)NCC(O)COc1ccc(CCOCC2CC2)cc1 (stereo not drawn),inactive and active: 3.38 µM,
Cc1ccc(Nc2nc(N)nc(CN3CCN(Cc4ccccc4)CC3)n2)cc1Cl,"inconclusive: 2.62 µM [inhibitor, full curve, poor fit]",
N#CCCn1nnc2ccccc21,"inconclusive: 11.7 µM [inhibitor, single point]",
CCC(=O)Nc1ccc(NC(=O)CSc2nnnn2-c2ccc3c(c2)OCCO3)cc1,,inactive: 28%
CC(C)CC(=O)NC(Nc1ccc([N+](=O)[O-])cc1)C(Cl)(Cl)Cl (stereo not drawn),"inconclusive: 2.08 µM [inhibitor, full curve, poor fit]",
COc1ccc(NC(=S)N(CCCN2CCCCC2)Cc2cccs2)cc1,active: 11.7 µM,
COc1cc(/C=C/C(=O)Nc2nc3ccc(S(=O)(=O)N(C)C)cc3s2)cc(OC)c1OC,"inconclusive: 4.65 µM [inhibitor, partial curve]",
Cc1ccc2c(c1)[C@@H]1CN(C)CC[C@@H]1N2S(=O)(=O)c1ccc([N+](=O)[O-])cc1,"inconclusive: 0.0294 µM [inhibitor, full curve, poor fit]",
C#CCNc1nc(CC)nc2c1nnn2Cc1ccccc1F,"inconclusive: 18.5 µM [inhibitor, single point]",
CN1CCN(CCCNC(=O)c2ccc(/C=C3\Oc4ccccc4N(Cc4ccc(Cl)cc4)C3=O)cc2)CC1,"inconclusive: 18.5 µM [inhibitor, single point]",
COc1cc(Cl)c(C)cc1NC(=O)c1ccccc1NC(=O)CN1CCOCC1,"inconclusive: 10.4 µM [inhibitor, partial curve, poor fit]",
Cc1cc(N2CCN(C(=O)Nc3ccc(F)cc3F)CC2)c2ccccc2n1,active: 14.7 µM,
Cc1cc2c(C)nc(Cc3ccccc3)nc2o1,"inconclusive: 16.5 µM [inhibitor, single point]",
Cc1cccc2c(=O)cc(C(F)(F)F)[nH]c12,"inconclusive: 18.5 µM [inhibitor, single point]",

SMILES,Potency,"activity change, negative = inhibition"
COc1ccc(NC(=S)NC2CCCC2)c(OC)c1,"inconclusive: 18.5 µM [inhibitor, single point]",
CCC1Nc2ncnc(N3CCCCC3)c2N(Cc2ccc(Br)cc2)C1=O (stereo not drawn),"inconclusive: 16.5 µM [inhibitor, single point]",
COc1cc([C@H]2c3cc4c(cc3[C@@H](O[C@H]3O[C@H]5CO[C@@H](C)O[C@H]5[C@@H](O)[C@@H]3O)[C@@H]3COC(=O)[C@H]23)OCO4)cc(OC)c1O,active: 13.5 µM,
COC(=O)c1cc(S(=O)(=O)N2CCN(c3cccc(Cl)c3)CC2)c[nH]1,"inconclusive: 4.15 µM [inhibitor, partial curve]",
Cc1c(NC(=O)C(C)Sc2ncnc3ccccc23)c(=O)n(-c2ccccc2)n1C (stereo not drawn),,inactive: 31.3% [at 5.75 µM]
Cc1ccc(S(=O)(=O)/N=C(/Nc2ccccn2)c2ccc(Cl)cc2)cc1,"inconclusive: 11.7 µM [inhibitor, single point]",
CCc1ccccc1NC(=O)NC1CCCCCCC1,"inconclusive: 16.5 µM [inhibitor, single point]",
CC(=O)Nc1ccccc1OCC(=O)c1cc(C)n(Cc2cccs2)c1C,,inactive: 56.3%
COc1ccc(NC(=O)[C@@H]2CCCN2C(=O)c2cccs2)cc1S(=O)(=O)N1CCCCC1,,inactive: 10.7%
COc1cc(NC(=O)CN2C(=O)COc3ccc(S(=O)(=O)N4CCCC4)cc32)cc(OC)c1,active: 0.415 µM,
CC1(NC(=O)CSc2nnc(-c3c[nH]c4ccccc34)n2C2CC2)CCS(=O)(=O)C1 (stereo not drawn),"inconclusive: 4.15 µM [inhibitor, partial curve]",
O=C(NCc1ccc(Cl)cc1)NCC(F)(F)F,,inactive: -1.16%
CCn1c(C)cc(/C=C2\NC(=O)N(Cc3ccc(Cl)cc3)C2=O)c1C,"inconclusive: 0.0029 µM [inhibitor, full curve, poor fit]",
Clc1ccc2c(N/N=C/c3cccc(Br)c3)ccnc2c1,active: 0.329 µM,
O=C(NC1CCCC1)C1CCCN(S(=O)(=O)c2cnc[nH]2)C1 (stereo not drawn),"inconclusive: 2.08 µM [inhibitor, partial curve, poor fit]",
Cc1ccc(C(C)C)c(OCC(=O)N2CCN(CC(=O)N3CCOCC3)CC2)c1,"inconclusive: 18.5 µM [inhibitor, single point]",
CCOC(=O)C1(Cc2cccc(OC)c2)CCN(Cc2ccc(OC)c(OC)c2)CC1,"inconclusive: 16.5 µM [inhibitor, single point]",
COc1ccc(C[C@H]2CN3C(=NC[C@@H]3Cc3ccc(O)cc3)N2C[C@H](C)NC(=O)CCC2CCCCC2)cc1,active: 0.928 µM,
Cc1cnc(C(=O)OC(C(=O)c2ccccc2)c2ccccc2)cn1 (stereo not drawn),"inconclusive: 10.4 µM [inhibitor, partial curve]",
CCOc1ccc(NC(=O)CN2CCN(CC(=O)Nc3ccc(N(C)C)cc3)CC2)cc1,,inactive: -8.53%
COc1cccc(CNc2ccc([N+](=O)[O-])cc2C)c1,,inactive: 16.6%
COc1ccc(-n2c(Cc3cccn3C)nnc2SCC(=O)N2CCC(C)CC2)cc1,active: 0.37 µM,
